Assay results reported in patent US20110117169A1, “METHODS AND COMPOSITIONS FOR CAPTURE OF CELLS” (AFFINERGY, INC., priority 2009, published 2011).
Results are given in words; binding and its absence hold for the method and conditions named. Some entries that bind do so weakly or less than the wild type.

Biological target: T1, Recombinant human TGF-β3 (rhTGF-β3) (human) (UniProt P10600)
T1 sequence (looked up): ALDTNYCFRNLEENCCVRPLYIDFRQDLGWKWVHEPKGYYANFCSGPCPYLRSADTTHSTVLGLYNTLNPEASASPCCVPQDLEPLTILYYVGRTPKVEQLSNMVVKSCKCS
Test: ELISA: biotinylated peptide on streptavidin plate, TGF-β3 titrated 1 µM-1 nM, detected with anti-TGF-β antibody and AP-conjugated secondary antibody

SSCNNLSVCTFDKIIERNRSSRGSSGK (biotin on the Lys of the C-terminal GSSGK(biotin) sequence) [TGF-β binding peptide … (SEQ ID NO: 21), biotinylated]
binding: binds
